# Laboratory results from PMC5490199.
# The chains behind the UniProt entries cited, without tags or fusion partners. Where a name states a change or a piece, a line headed by the entry shows the natural chain unless it says otherwise.
# UniProt Q8T9L5: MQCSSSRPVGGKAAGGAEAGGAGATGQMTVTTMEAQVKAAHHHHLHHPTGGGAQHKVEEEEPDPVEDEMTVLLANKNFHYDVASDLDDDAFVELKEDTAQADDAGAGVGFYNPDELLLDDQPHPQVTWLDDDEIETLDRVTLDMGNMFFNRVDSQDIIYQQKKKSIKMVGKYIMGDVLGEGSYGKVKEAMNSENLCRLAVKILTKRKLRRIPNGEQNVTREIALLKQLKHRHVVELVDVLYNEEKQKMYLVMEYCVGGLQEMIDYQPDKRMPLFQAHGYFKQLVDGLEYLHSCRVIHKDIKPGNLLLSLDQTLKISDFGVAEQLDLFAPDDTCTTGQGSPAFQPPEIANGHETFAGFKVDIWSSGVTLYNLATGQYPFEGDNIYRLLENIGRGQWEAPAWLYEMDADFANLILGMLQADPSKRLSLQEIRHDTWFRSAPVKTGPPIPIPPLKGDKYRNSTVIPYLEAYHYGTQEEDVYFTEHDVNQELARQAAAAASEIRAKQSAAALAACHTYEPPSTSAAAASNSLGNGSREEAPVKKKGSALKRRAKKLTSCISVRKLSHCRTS
# B1: HA-tagged DmSTRADα (Stlk) (protein, UniProt P83098 1-346)
# chain: MMCSNNISDYKLLEILKNGMIGTVYKAEDINNKCLAVKKVSMDQPMEKLTLLFNEVLTVRRLQHRNINTIVSCFLYKQYVYLTYKFMCFGNCEVLLKNVYTSGFPEVAIALILKDVLSALTYIHSEHYVHGSVRAKHILLSPRKAVLSNFSYCQSFISQGEKKTFIFGSTVGIEKELYWTAPEVLYQNLSGYTEKIDIYSIGITCCEMANGFQPFKDTELTYMYIEKVRGSLQVLLDKNSLLENQGSLSLEHTNKRIARDVIVNKSFSENFHQFVELCLNKNPLSRWAASKLMTHSFLKQCRNTSLLDQLKDLGQKMSKFKRNEHEIFSDARGSHNPQPNDTIWKF
# Columns and labels:
# [1] = target: GFP-LKB1 (wild-type Drosophila LKB1) (Drosophila) (UniProt Q8T9L5); test: co-IP; GFP-Trap (ChromoTek) on GFP-LKB1; Drosophila embryonic lysates that ubiquitously expressed the proteins using arm::GAL4
# [2] = target: GFP-LKB1 ΔLB C564A (membrane-binding-deficient Drosophila LKB1) (Drosophila); test: as above
binder,measurement,setting,value
B1,binding,[1],binds
same,binding,[2],binds

# Results are given in words; binding and its absence hold for the method and conditions named. Binding seen in cells or lysates may run through a third protein. A result given as binding can be weak or reduced; the word gives no strength. Sequences can lack the tags named with a protein.
